Assay results from the supplement of paper PMC12823440, “Inhibitors supercharge kinase turnover through native proteolytic circuits” (Nature, 2025).
Structures can show the parent of a compound that is named as a salt. Some of the results follow. The calls rarely recur for the same compound in another form.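 Kinases were expressed as nanoluciferase fusions in K562 cells and luminescence was read every 4 h between 2 and 18 h as percent of control, DMSO set to 100% and a positive control to 0%. A time point counts as decreased when the signal drops significantly (2 sigma). The hit call is the authors' own, does not follow from the count of time points alone, and its rule is not shown.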

By UniProt entry, the sequences of proteins in these tests, tags left out. Where a name states a change or a piece, a line headed by the entry shows the natural chain unless it says otherwise.
UniProt O75460: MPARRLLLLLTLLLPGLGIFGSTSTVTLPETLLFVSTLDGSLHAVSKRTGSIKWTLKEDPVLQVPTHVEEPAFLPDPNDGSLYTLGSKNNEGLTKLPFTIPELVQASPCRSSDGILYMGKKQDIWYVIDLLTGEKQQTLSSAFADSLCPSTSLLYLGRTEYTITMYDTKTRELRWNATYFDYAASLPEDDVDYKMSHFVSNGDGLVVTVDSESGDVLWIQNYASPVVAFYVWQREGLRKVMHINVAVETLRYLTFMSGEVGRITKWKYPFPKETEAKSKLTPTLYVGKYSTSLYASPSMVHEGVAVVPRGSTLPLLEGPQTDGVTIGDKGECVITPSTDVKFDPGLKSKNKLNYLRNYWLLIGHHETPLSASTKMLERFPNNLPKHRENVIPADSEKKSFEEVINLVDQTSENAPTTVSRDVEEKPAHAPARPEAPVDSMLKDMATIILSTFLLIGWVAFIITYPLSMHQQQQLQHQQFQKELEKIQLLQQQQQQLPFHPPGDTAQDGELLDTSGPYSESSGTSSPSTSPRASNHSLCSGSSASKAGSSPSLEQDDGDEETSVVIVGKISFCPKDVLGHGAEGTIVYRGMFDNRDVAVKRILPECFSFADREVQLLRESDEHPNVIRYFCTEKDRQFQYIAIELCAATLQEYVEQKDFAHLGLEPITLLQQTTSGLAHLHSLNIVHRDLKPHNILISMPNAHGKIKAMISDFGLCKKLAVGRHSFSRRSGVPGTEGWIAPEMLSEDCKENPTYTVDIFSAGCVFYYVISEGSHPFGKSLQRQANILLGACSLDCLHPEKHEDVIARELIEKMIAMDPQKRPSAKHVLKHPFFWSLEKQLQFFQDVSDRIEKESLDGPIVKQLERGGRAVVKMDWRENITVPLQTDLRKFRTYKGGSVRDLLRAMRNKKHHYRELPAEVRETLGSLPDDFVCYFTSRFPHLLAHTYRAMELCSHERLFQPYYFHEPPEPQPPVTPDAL
UniProt P11362, whole entry, looked up: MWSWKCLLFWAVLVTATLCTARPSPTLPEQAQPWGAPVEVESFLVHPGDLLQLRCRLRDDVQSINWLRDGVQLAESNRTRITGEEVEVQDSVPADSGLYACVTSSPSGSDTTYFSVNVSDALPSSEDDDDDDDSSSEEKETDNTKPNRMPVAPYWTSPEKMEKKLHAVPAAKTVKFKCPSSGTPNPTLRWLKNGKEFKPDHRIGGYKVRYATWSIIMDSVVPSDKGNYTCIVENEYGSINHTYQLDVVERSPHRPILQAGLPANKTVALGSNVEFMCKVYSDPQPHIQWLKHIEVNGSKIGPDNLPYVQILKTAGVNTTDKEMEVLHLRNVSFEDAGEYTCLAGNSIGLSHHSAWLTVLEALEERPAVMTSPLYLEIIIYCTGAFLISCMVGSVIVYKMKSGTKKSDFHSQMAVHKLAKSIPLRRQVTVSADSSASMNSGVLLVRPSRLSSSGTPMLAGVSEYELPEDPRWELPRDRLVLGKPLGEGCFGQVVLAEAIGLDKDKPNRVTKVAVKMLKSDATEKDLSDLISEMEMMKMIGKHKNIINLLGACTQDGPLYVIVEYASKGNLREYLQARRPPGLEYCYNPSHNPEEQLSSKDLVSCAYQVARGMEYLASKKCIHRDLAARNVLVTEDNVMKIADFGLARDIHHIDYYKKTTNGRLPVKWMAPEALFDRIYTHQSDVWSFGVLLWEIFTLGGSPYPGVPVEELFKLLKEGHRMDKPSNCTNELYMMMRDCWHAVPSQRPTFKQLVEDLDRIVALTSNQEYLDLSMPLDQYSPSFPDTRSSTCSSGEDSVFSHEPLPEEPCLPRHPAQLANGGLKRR
UniProt P21802, whole entry, looked up: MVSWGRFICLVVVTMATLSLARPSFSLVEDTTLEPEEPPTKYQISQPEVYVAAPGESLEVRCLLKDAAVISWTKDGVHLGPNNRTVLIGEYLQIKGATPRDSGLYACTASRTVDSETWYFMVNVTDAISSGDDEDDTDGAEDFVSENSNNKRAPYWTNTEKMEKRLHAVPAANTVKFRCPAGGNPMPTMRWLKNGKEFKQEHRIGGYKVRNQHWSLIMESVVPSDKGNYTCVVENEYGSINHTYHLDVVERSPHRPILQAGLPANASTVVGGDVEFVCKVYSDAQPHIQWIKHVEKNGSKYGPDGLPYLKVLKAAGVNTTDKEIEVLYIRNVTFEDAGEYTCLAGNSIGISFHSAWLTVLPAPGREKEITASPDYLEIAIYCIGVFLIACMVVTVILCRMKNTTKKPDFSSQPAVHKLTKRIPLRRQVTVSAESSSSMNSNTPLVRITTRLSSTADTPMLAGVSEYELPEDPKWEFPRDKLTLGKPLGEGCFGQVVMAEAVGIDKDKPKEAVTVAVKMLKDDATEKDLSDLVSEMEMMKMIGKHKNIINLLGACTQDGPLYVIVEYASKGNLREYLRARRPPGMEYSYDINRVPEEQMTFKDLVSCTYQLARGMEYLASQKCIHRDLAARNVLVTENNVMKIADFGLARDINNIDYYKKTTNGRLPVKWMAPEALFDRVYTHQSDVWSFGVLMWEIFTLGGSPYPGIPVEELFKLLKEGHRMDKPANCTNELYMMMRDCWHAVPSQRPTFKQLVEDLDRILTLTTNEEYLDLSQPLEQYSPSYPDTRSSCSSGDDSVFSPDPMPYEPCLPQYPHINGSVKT
UniProt P22607, whole entry, looked up: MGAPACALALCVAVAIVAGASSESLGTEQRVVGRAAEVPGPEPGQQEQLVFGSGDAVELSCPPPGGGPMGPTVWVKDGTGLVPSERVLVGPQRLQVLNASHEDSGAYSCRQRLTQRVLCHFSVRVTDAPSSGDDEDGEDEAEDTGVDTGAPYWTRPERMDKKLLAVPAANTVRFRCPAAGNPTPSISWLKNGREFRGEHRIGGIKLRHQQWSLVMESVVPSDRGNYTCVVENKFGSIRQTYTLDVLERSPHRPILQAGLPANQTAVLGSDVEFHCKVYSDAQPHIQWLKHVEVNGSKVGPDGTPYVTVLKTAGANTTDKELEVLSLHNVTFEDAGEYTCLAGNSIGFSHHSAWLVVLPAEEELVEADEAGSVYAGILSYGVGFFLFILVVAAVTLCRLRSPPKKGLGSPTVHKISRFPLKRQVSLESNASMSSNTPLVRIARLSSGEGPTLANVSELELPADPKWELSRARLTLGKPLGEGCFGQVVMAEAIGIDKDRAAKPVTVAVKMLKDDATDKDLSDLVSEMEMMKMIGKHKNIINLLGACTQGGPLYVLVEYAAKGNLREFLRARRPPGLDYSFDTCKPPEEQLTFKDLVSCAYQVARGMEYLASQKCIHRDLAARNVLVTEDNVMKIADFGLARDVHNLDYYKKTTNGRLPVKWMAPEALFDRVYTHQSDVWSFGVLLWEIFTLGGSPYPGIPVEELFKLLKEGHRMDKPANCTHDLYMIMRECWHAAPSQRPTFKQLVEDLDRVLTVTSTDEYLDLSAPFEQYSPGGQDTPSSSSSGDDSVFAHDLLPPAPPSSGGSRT
UniProt P36888, whole entry: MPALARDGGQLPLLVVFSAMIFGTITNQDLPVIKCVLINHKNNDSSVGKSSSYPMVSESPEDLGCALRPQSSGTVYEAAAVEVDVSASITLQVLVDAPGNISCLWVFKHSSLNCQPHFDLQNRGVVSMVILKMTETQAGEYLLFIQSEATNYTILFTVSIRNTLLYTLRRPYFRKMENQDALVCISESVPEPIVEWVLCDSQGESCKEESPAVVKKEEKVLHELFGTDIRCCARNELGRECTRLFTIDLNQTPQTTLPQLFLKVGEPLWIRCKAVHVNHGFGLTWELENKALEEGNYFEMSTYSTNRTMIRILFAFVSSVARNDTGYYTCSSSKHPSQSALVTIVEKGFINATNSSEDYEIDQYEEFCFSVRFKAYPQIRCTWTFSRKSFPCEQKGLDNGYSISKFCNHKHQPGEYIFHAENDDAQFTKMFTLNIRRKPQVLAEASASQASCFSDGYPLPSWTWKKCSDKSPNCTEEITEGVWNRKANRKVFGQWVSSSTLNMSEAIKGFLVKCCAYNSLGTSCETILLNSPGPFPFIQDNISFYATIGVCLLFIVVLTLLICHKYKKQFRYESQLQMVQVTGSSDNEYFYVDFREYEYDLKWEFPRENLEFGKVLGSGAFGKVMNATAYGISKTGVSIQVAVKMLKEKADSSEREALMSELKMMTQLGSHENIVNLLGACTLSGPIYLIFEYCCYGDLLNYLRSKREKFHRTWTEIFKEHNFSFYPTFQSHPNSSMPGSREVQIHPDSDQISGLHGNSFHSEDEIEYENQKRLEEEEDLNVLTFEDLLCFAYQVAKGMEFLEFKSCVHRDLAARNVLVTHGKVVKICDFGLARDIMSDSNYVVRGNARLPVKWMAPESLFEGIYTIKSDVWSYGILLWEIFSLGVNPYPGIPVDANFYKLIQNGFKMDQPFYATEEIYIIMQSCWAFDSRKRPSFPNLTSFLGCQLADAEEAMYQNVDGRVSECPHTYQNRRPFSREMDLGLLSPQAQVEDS
UniProt P06241, whole entry, looked up: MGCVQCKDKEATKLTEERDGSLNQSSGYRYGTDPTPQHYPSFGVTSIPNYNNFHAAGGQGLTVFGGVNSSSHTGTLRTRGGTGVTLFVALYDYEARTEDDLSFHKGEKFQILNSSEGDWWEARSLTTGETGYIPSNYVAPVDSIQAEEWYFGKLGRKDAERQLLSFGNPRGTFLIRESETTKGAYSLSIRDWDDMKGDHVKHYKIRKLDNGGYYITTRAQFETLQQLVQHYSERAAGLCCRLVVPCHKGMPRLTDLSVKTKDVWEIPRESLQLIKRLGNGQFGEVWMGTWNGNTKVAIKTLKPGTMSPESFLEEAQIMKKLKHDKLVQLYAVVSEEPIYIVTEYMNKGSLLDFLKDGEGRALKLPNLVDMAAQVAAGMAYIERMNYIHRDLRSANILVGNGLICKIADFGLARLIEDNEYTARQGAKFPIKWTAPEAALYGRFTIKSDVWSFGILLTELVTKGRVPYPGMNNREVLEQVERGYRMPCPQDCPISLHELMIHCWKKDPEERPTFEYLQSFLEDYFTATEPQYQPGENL
UniProt P14616: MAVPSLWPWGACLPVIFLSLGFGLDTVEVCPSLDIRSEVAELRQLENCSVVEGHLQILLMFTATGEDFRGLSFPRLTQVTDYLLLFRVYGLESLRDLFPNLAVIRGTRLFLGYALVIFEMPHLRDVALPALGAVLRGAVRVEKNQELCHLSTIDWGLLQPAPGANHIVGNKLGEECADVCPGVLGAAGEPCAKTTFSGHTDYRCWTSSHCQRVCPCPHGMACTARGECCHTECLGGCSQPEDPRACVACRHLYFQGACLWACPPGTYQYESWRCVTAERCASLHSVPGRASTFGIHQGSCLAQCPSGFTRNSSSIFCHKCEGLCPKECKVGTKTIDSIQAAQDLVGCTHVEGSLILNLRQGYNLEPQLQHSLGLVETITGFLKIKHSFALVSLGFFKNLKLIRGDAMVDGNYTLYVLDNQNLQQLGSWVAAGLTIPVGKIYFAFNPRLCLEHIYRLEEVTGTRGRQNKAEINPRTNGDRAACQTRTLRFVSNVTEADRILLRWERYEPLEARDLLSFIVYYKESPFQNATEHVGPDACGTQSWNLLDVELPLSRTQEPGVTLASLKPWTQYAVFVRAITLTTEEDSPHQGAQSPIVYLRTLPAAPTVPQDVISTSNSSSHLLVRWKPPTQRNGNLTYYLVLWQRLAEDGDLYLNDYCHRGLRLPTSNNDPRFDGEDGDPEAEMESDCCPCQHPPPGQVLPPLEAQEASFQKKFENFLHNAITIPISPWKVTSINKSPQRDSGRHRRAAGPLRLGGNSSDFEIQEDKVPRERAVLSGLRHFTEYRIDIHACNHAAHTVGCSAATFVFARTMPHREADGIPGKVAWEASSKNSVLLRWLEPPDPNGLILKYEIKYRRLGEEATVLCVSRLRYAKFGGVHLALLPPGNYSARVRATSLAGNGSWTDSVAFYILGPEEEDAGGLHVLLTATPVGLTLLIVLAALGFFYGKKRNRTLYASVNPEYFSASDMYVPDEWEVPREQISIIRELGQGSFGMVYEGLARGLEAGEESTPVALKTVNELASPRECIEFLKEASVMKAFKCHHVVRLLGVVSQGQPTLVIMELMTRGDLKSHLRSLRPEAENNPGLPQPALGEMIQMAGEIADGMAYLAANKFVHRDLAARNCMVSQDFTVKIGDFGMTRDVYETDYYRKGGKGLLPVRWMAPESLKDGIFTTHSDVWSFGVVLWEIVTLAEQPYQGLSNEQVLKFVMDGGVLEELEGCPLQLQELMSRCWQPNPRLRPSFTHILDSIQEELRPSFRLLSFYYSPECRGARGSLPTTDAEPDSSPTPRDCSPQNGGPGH

What was measured:
Assay in all cases: kinase-Nluc reporter destabilization hit call (1 = scored as downregulated) (binary); higher = compound decreases kinase abundance
Conditions in all cases: K562; 2-18 h
[1] = biological target: ERN1 (UniProt O75460)
[2] = biological target: FGFR1 (UniProt P11362)
[3] = biological target: FGFR2 (UniProt P21802)
[4] = biological target: FGFR3 (UniProt P22607)
[5] = biological target: FGR (UniProt P09769)
[6] = biological target: FLT3 (UniProt P36888)
[7] = biological target: FYN (UniProt P06241)
[8] = biological target: GSK3A (UniProt P49840)
[9] = biological target: HER2 (UniProt P04626)
[10] = biological target: INSRR (UniProt P14616)

| SMILES | kinase-Nluc reporter destabilization hit call [1] | kinase-Nluc reporter destabilization hit call [2] | kinase-Nluc reporter destabilization hit call [3] | kinase-Nluc reporter destabilization hit call [4] | kinase-Nluc reporter destabilization hit call [5] | kinase-Nluc reporter destabilization hit call [6] | kinase-Nluc reporter destabilization hit call [7] | kinase-Nluc reporter destabilization hit call [8] | kinase-Nluc reporter destabilization hit call [9] | kinase-Nluc reporter destabilization hit call [10] |
| --- | --- | --- | --- | --- | --- | --- | --- | --- | --- | --- |
| N[C@H](Cc1c[nH]c2ccccc12)C(=O)N/N=C/c1ccc2nccnc2c1 [Rhosin (hydrochloride)] (10 µM) | inactive: 0 | inactive: 0 | inactive: 0 | inactive: 0 | inactive: 0 | inactive: 0 | inactive: 0 | inactive: 0 | inactive: 0 | inactive: 0 |
| O=C(/C=C/c1ccc(O)c(O)c1)OC1CC(OC(=O)/C=C/c2ccc(O)c(O)c2)(C(=O)O)CC(O)C1O (stereo not given) [1,3-Dicaffeoylquinic acid] (10 µM) | inactive: 0 | inactive: 0 | inactive: 0 | inactive: 0 | inactive: 0 | inactive: 0 | inactive: 0 | inactive: 0 | inactive: 0 | inactive: 0 |
| CS(=O)(=O)c1ccc(-c2noc(C(F)(F)F)c2-c2ccccc2)cc1 (10 µM) | inactive: 0 | inactive: 0 | inactive: 0 | inactive: 0 | inactive: 0 | inactive: 0 | inactive: 0 | inactive: 0 | inactive: 0 | inactive: 0 |
| CC(C)=CCC[C@](C)(O[C@@H]1O[C@H](CO)[C@@H](O)[C@H](O)[C@H]1O)[C@H]1CC[C@]2(C)[C@@H]1[C@H](O)C[C@@H]1[C@@]3(C)CC[C@H](O)C(C)(C)[C@@H]3[C@@H](O[C@@H]3O[C@H](CO)[C@@H](O)[C@H](O)[C@H]3O[C@@H]3O[C@@H](C)[C@H](O)[C@@H](O)[C@H]3O)C[C@]12C [Ginsenoside Re] (10 µM) | inactive: 0 | inactive: 0 | inactive: 0 | inactive: 0 | inactive: 0 | inactive: 0 | inactive: 0 | inactive: 0 | inactive: 0 | inactive: 0 |
| COc1ncc(-c2nc(N3CCOCC3)nc3c(CN4CCC(C(C)(C)O)CC4)cc(F)cc23)cc1NS(C)(=O)=O [Linperlisib] (10 µM) | inactive: 0 | inactive: 0 | inactive: 0 | inactive: 0 | inactive: 0 | inactive: 0 | inactive: 0 | inactive: 0 | inactive: 0 | inactive: 0 |
| O=C(NCCCNc1nc(Nc2cccc(NC(=O)N3CCCC3)c2)ncc1I)c1cccs1 (2.5 µM) | inactive: 0 | inactive: 0 | inactive: 0 | inactive: 0 | inactive: 0 | inactive: 0 | inactive: 0 | inactive: 0 | inactive: 0 | inactive: 0 |
| O=C1NC(=O)C(=Cc2ccc(-c3ccc(F)cc3)o2)S1 (stereo in doubt) (10 µM) | inactive: 0 | inactive: 0 | inactive: 0 | inactive: 0 | inactive: 0 | inactive: 0 | inactive: 0 | inactive: 0 | inactive: 0 | inactive: 0 |
| Cc1cc(O)c(C(C)C)cc1N=O [Poloxime] (10 µM) | inactive: 0 | inactive: 0 | inactive: 0 | inactive: 0 | inactive: 0 | inactive: 0 | inactive: 0 | inactive: 0 | inactive: 0 | inactive: 0 |
| C[C@@H]1O[C@@H](O[C@H]2[C@H](Oc3cc(O)c4c(=O)cc(-c5ccc(O)cc5)oc4c3)O[C@H](CO)[C@@H](O)[C@@H]2O)[C@H](O)[C@H](O)[C@H]1O [Rhoifolin] (10 µM) | inactive: 0 | inactive: 0 | inactive: 0 | inactive: 0 | inactive: 0 | inactive: 0 | inactive: 0 | inactive: 0 | inactive: 0 | inactive: 0 |
| CCc1cc(O)c(F)cc1-c1ccc2c(-c3nc4c([nH]3)CN(C3CCN(C)CC3)CC4)n[nH]c2c1 [JAK-IN-5 (hydrochloride)] (2 µM) | inactive: 0 | inactive: 0 | inactive: 0 | inactive: 0 | inactive: 0 | inactive: 0 | inactive: 0 | inactive: 0 | inactive: 0 | inactive: 0 |
| Nc1ncnc2c1c(-c1ccc(Oc3ccccc3)cc1)nn2C1CCCNC1 (racemic) (2.5 µM) | inactive: 0 | inactive: 0 | inactive: 0 | inactive: 0 | inactive: 0 | inactive: 0 | inactive: 0 | inactive: 0 | inactive: 0 | inactive: 0 |
| C[C@@H]1C(=O)O[C@H](C)[C@H]1C[C@@H](O)[C@](C)(O)[C@H]1CC[C@@]2(O)C3=CC(=O)[C@@H]4C[C@@H](O)[C@@H](O)C[C@]4(C)[C@H]3CC[C@]12C [Cyasterone] (10 µM) | inactive: 0 | inactive: 0 | inactive: 0 | inactive: 0 | inactive: 0 | inactive: 0 | inactive: 0 | inactive: 0 | inactive: 0 | inactive: 0 |
| CC(C)(NS(=O)(=O)c1ccc2c(Cl)cnc(N=C(N)N)c2c1)C(=O)O (10 µM) | inactive: 0 | inactive: 0 | inactive: 0 | inactive: 0 | inactive: 0 | inactive: 0 | inactive: 0 | inactive: 0 | inactive: 0 | inactive: 0 |
| CC1=C2C(=O)O[C@@H](c3ccoc3)[C@]2(C)CCC1 [Fraxinellone] (10 µM) | inactive: 0 | inactive: 0 | inactive: 0 | inactive: 0 | inactive: 0 | inactive: 0 | inactive: 0 | inactive: 0 | inactive: 0 | inactive: 0 |
| COc1cc(S(C)(=O)=O)ccc1Nc1nc2ccc(-c3ccc(NC(=O)[C@H](C)c4ccc(F)cc4)cc3)cn2n1 [Empesertib] (10 µM) | inactive: 0 | inactive: 0 | inactive: 0 | inactive: 0 | inactive: 0 | inactive: 0 | inactive: 0 | inactive: 0 | inactive: 0 | inactive: 0 |
| Cc1ccc(-c2c(C(=O)CCl)n(CCCO)c3ncnc(N)c23)cc1 (10 µM) | inactive: 0 | inactive: 0 | inactive: 0 | inactive: 0 | inactive: 0 | inactive: 0 | active: 1 | inactive: 0 | inactive: 0 | inactive: 0 |
| O=C(NCCO)c1ccc2c(c1)nc(Nc1cccc(Cl)c1)c1ccncc12 [CK2 inhibitor 2] (10 µM) | inactive: 0 | inactive: 0 | inactive: 0 | inactive: 0 | inactive: 0 | inactive: 0 | inactive: 0 | inactive: 0 | inactive: 0 | inactive: 0 |
| CCN(CC)S(=O)(=O)c1ccc(OC)c(N2CCN(C(=O)c3ccc(F)cc3C(F)(F)F)CC2)c1 (10 µM) | inactive: 0 | inactive: 0 | inactive: 0 | inactive: 0 | inactive: 0 | inactive: 0 | inactive: 0 | inactive: 0 | inactive: 0 | inactive: 0 |
| CNC(=O)c1ccc(-c2cnc3cnc(C(=O)N(C)c4ccc(Cl)cc4)cn23)cc1 (2.5 µM) | inactive: 0 | inactive: 0 | inactive: 0 | inactive: 0 | inactive: 0 | inactive: 0 | inactive: 0 | inactive: 0 | inactive: 0 | inactive: 0 |
| CCN1CCN(Cc2ccc(Nc3ncc(F)c(-c4cc(F)c5nc(CO)n(C(C)C)c5c4)n3)nc2)CC1 [Abemaciclib metabolite M20] (2 µM) | inactive: 0 | inactive: 0 | inactive: 0 | inactive: 0 | inactive: 0 | inactive: 0 | inactive: 0 | inactive: 0 | inactive: 0 | inactive: 0 |
| C[C@]1(O)CCC[C@@H]1n1c(=O)c(C(F)F)cc2cnc(NC3CCN(S(C)(=O)=O)CC3)nc21 (10 µM) | inactive: 0 | inactive: 0 | inactive: 0 | inactive: 0 | inactive: 0 | inactive: 0 | inactive: 0 | inactive: 0 | inactive: 0 | inactive: 0 |
| CC(C)c1cnc(-c2cc(Cl)ccc2F)cc1Nc1ccncc1C(=O)NC(CO)CO (2.5 µM) | inactive: 0 | inactive: 0 | inactive: 0 | inactive: 0 | inactive: 0 | inactive: 0 | inactive: 0 | inactive: 0 | inactive: 0 | inactive: 0 |
| C=CC(=O)Nc1cccc(C)c1Nc1ncc2cc(-c3c(Cl)c(OC)cc(OC)c3Cl)ccc2n1 (2.5 µM) | inactive: 0 | inactive: 0 | inactive: 0 | inactive: 0 | inactive: 0 | inactive: 0 | inactive: 0 | inactive: 0 | inactive: 0 | inactive: 0 |
| O=C(NCCCNC(=O)Nc1cccc(C2=NCCN2)c1)Nc1cccc(C2=NCCN2)c1 [p32 Inhibitor M36] (10 µM) | inactive: 0 | inactive: 0 | inactive: 0 | inactive: 0 | inactive: 0 | inactive: 0 | inactive: 0 | inactive: 0 | inactive: 0 | inactive: 0 |
| c1cc2c(cc1O[C@H]1OC[C@H]3[C@@H]1CO[C@@H]3c1ccc3c(c1)OCO3)OCO2 [Sesamolin] (10 µM) | inactive: 0 | inactive: 0 | inactive: 0 | inactive: 0 | inactive: 0 | inactive: 0 | inactive: 0 | inactive: 0 | inactive: 0 | inactive: 0 |
| NCc1ccc(Nc2ncc(F)c(Nc3ccccc3)n2)cc1 (10 µM) | inactive: 0 | inactive: 0 | inactive: 0 | inactive: 0 | inactive: 0 | inactive: 0 | inactive: 0 | inactive: 0 | inactive: 0 | inactive: 0 |
| CC(=O)N1CCN(c2cc(-c3cc(C(F)(F)F)c4c(N)ncnn34)ccc2C#N)C(=O)C1(C)C (10 µM) | inactive: 0 | inactive: 0 | inactive: 0 | inactive: 0 | inactive: 0 | inactive: 0 | inactive: 0 | inactive: 0 | inactive: 0 | inactive: 0 |
| C/C(=C1/C(=O)Nc2ccc(NC(N)=O)cc21)c1ccc[nH]1 (10 µM) | inactive: 0 | inactive: 0 | inactive: 0 | inactive: 0 | inactive: 0 | inactive: 0 | inactive: 0 | inactive: 0 | inactive: 0 | inactive: 0 |

Quoted at random: two records from the list, in no set order.

| SMILES | kinase-Nluc reporter destabilization hit call [1] | kinase-Nluc reporter destabilization hit call [2] | kinase-Nluc reporter destabilization hit call [3] | kinase-Nluc reporter destabilization hit call [4] | kinase-Nluc reporter destabilization hit call [5] | kinase-Nluc reporter destabilization hit call [6] | kinase-Nluc reporter destabilization hit call [7] | kinase-Nluc reporter destabilization hit call [8] | kinase-Nluc reporter destabilization hit call [9] | kinase-Nluc reporter destabilization hit call [10] |
| --- | --- | --- | --- | --- | --- | --- | --- | --- | --- | --- |
| N[C@H](Cc1c[nH]c2ccccc12)C(=O)N/N=C/c1ccc2nccnc2c1 [Rhosin (hydrochloride)] (10 µM) | inactive: 0 | inactive: 0 | inactive: 0 | inactive: 0 | inactive: 0 | inactive: 0 | inactive: 0 | inactive: 0 | inactive: 0 | inactive: 0 |
| CS(=O)(=O)c1ccc(-c2noc(C(F)(F)F)c2-c2ccccc2)cc1 (10 µM) | inactive: 0 | inactive: 0 | inactive: 0 | inactive: 0 | inactive: 0 | inactive: 0 | inactive: 0 | inactive: 0 | inactive: 0 | inactive: 0 |
